Results as given in the supplement of paper PMC10849652.
The other results are listed elsewhere or left out.

By UniProt entry, the sequences of proteins in these tests, tags left out. Where a name states a change or a piece, a line headed by the entry shows the natural chain unless it says otherwise.
UniProt Q96QG7: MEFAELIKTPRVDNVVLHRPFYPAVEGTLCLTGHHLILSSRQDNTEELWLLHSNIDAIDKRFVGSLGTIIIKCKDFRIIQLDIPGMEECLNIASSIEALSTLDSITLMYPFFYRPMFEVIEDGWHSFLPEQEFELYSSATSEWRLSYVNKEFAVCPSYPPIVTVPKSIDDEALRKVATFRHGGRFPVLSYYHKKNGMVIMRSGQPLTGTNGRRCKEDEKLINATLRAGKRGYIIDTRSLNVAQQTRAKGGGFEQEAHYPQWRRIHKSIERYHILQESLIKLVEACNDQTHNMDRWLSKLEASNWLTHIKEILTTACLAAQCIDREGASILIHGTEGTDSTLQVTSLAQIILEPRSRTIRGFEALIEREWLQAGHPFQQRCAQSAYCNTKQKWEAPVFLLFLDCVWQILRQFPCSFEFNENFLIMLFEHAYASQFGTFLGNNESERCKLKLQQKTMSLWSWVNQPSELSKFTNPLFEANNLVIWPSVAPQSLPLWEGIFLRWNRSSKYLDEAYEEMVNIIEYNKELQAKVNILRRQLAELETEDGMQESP
UniProt P46199: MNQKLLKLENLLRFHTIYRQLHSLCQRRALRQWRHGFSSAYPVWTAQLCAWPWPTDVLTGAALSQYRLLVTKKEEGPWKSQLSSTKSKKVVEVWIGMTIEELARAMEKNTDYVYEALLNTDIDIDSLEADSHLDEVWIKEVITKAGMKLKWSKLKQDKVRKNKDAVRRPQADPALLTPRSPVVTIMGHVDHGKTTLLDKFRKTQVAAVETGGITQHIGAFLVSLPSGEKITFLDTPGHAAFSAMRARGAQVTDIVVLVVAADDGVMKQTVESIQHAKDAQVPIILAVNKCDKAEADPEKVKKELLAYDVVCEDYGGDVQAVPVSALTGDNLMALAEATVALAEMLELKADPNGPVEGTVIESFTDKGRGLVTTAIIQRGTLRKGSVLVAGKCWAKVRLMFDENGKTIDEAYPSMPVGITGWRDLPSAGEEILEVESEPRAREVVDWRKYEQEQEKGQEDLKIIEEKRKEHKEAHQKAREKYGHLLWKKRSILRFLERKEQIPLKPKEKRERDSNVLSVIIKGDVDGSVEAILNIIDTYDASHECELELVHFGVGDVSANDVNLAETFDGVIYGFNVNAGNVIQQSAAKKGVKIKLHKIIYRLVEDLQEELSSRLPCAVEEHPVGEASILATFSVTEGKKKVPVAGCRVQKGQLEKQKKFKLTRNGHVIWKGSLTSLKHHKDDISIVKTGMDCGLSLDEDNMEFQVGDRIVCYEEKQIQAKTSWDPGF
UniProt P03886, whole entry, looked up: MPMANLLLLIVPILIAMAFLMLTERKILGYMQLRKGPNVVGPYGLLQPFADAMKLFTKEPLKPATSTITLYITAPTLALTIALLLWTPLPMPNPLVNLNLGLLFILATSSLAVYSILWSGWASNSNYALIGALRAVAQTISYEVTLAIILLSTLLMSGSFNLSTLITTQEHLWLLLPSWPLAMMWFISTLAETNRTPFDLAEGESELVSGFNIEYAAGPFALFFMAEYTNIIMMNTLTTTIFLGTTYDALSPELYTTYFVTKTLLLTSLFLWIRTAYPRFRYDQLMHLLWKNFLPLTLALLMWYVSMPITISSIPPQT
UniProt Q13496: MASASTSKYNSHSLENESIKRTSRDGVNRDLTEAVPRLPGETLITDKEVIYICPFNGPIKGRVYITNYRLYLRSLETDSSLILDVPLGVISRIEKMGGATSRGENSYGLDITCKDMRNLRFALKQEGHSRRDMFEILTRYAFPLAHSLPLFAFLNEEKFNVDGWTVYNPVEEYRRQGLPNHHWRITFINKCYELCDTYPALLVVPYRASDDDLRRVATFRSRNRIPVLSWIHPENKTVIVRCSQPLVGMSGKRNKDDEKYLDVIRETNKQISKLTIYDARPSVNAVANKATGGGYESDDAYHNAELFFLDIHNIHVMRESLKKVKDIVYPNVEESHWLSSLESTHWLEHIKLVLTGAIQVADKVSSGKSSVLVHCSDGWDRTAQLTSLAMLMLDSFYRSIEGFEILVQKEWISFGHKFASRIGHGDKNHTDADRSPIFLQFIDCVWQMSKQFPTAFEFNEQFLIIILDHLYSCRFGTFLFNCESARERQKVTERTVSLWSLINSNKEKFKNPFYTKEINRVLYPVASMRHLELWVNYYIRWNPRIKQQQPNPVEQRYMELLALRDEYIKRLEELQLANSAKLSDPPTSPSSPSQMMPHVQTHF
UniProt Q13330: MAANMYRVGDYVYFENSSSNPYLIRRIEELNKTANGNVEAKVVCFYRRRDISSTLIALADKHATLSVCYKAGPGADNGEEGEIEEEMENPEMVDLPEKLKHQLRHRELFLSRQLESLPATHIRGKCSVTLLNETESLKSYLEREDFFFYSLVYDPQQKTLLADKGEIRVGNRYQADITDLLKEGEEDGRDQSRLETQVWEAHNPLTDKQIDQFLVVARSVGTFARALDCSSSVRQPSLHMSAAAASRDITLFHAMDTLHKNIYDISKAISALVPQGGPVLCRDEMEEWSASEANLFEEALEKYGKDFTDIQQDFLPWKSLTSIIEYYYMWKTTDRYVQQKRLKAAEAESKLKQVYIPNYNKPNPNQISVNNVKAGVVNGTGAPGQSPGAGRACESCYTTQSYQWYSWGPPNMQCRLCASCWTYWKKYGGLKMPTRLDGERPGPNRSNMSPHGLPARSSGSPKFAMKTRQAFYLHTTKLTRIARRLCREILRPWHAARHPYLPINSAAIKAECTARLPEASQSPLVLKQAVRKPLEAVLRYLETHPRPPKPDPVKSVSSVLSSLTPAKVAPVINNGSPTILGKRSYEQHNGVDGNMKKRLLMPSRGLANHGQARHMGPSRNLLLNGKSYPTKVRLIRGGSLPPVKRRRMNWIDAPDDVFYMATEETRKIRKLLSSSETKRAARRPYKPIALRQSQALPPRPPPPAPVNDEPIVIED
UniProt Q96DH6: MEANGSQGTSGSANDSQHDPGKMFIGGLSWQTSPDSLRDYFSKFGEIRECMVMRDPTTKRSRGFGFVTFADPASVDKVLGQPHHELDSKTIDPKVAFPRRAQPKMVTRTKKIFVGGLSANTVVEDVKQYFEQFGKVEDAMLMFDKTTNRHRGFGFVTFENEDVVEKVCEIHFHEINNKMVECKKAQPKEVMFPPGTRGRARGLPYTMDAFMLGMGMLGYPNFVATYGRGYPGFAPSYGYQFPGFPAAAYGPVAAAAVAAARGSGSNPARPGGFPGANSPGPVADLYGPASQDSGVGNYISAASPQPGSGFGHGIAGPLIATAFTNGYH
UniProt P82909: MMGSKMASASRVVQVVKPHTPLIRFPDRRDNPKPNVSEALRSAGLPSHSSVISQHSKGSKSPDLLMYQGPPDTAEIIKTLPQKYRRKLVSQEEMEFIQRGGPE
UniProt P26038, whole entry, looked up: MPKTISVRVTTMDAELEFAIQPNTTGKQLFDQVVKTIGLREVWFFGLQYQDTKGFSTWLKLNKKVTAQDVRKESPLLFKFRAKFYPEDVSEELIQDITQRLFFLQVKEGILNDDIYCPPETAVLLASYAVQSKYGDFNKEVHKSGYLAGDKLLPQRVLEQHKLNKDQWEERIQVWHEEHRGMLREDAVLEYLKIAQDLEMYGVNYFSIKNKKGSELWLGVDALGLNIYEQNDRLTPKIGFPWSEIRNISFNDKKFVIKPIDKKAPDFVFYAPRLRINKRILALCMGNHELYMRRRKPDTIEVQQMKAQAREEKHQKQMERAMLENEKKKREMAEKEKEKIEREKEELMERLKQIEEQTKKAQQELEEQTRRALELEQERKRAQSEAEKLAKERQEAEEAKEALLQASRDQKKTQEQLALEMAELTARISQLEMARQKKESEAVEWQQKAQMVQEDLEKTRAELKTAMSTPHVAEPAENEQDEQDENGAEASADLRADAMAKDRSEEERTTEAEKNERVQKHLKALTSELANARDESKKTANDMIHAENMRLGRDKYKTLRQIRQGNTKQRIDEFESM
UniProt Q99707: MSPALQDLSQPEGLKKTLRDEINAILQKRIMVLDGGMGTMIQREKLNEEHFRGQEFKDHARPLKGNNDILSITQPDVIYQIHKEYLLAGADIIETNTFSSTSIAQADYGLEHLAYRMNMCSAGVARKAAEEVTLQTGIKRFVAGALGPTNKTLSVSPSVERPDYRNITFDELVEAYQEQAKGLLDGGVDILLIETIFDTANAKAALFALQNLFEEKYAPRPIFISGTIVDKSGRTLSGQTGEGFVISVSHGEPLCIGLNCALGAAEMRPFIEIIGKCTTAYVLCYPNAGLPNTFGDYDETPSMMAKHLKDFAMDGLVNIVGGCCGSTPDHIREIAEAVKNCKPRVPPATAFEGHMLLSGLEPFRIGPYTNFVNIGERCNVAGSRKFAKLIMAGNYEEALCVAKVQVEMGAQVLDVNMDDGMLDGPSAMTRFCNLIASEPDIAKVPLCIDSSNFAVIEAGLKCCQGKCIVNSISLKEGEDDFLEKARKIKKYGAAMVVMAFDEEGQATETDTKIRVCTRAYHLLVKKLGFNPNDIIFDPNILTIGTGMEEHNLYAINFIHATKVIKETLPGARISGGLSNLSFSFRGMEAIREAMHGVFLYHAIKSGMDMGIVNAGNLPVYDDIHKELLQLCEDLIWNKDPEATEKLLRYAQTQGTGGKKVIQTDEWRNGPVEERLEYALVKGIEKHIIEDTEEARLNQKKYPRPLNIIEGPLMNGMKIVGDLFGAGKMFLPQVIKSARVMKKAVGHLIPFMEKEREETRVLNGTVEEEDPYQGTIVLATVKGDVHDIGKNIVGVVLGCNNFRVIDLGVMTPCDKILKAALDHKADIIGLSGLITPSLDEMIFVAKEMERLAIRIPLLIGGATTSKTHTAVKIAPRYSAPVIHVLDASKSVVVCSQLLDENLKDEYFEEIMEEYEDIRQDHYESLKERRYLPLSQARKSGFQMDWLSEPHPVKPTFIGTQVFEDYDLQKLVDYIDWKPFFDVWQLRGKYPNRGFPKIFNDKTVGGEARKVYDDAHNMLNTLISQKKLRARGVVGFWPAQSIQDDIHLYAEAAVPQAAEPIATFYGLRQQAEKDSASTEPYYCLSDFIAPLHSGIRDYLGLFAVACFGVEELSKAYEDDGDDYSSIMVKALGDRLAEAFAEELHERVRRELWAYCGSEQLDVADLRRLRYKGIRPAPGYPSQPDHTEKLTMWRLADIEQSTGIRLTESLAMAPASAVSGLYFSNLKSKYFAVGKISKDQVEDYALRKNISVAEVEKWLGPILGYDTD
UniProt P00846: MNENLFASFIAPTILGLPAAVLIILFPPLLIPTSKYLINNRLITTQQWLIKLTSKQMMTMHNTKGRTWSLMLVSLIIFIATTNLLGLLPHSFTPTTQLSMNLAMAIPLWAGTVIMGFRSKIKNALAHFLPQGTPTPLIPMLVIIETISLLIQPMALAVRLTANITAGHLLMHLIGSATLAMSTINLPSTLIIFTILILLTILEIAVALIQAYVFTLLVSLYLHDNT
UniProt O94776: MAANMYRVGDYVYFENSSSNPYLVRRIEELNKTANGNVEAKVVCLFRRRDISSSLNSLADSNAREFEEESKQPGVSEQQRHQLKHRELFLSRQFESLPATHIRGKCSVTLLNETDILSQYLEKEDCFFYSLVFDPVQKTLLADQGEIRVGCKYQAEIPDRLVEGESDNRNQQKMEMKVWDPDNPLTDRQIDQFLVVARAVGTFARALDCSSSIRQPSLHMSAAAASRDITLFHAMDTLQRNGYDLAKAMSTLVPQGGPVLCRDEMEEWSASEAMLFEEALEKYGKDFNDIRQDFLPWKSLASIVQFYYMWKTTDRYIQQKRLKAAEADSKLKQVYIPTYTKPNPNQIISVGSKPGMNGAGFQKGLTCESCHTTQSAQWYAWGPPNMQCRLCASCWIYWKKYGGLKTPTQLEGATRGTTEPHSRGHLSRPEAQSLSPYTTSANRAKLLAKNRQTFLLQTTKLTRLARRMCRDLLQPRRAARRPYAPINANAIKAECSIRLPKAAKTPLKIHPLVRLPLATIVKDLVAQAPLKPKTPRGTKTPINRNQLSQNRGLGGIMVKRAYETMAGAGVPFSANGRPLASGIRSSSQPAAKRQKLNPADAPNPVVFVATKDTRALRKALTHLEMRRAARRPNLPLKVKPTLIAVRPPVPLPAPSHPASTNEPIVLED
UniProt Q13505: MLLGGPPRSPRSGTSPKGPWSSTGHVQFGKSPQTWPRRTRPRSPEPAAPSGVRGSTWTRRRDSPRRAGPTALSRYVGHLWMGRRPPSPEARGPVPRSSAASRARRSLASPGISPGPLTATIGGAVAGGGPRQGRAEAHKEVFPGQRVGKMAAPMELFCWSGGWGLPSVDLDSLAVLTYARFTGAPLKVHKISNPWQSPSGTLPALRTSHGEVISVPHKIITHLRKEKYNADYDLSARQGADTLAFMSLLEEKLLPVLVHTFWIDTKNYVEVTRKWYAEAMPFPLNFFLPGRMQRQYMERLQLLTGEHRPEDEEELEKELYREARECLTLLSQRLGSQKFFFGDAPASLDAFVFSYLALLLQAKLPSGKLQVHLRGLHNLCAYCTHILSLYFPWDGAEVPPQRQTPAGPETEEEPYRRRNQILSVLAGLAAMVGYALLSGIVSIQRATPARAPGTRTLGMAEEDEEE

compound: C[C@@H](Oc1cc(-c2cnn(C3CCNCC3)c2)cnc1N)c1c(Cl)ccc(F)c1Cl [crizotinib]; experiment: log2 fold change, soluble protein after heating vs DMSO (PISA); higher = thermal stabilisation; K562 lysate, 10 uM; active = over 0.2 and 3.5 SD of the protein, either way, in both replicates (recomputed)
Outline: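 The values are log-two fold changes in thermal stability compared with solvent controls and come from duplicates. They were obtained by TMTpro 16plex LC-MS/MS, with channel sums equalised, on the supernatant after 21,000xg for 90 min. That supernatant came from crude K562 extract at 1 mg/mL protein treated with 10 μM compound for 30 min, heated for 3 min across 48°C-58°C, pooled and brought to 0.5% NP-40 at 4°C.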

log2 fold change, inactive:
MRPL4 (UniProt Q9BYD3) -0.025, MRPS9 (UniProt P82933) -0.032, MTMR9 (UniProt Q96QG7) -0.002, MRPL28 (UniProt Q13084) -0.08, MRPL41 (UniProt Q8IXM3) 0.047, MRPS22 (UniProt P82650) -0.007, MRPL45 (UniProt Q9BRJ2) 0.051, MRPS18A isoform 2 (UniProt Q9NVS2) -0.02, MRPL50 (UniProt Q8N5N7) -0.038, MTIF2 (UniProt P46199) -0.05, MRS2 (UniProt Q9HD23) 0.041, MT-ND1 (UniProt P03886) -0.062, MRPS30 (UniProt Q9NP92) -0.032, MTM1 (UniProt Q13496) 0.027, MRPS18B (UniProt Q9Y676) -0.026, MRPL32 (UniProt Q9BYC8) -0.006, MRPS5 (UniProt P82675) -0.01, MSH6 (UniProt P52701) -0.076, MSRB2 (UniProt Q9Y3D2) 0.013, MTA1 (UniProt Q13330) -0.008, MSI2 (UniProt Q96DH6) 0.036, MRPL9 (UniProt Q9BYD2) -0.073, MRPS10 (UniProt P82664) -0.008, MRPS36 (UniProt P82909) -0.043, MSN (UniProt P26038) 0.035, MRPS28 (UniProt Q9Y2Q9) 0.075, MTR (UniProt Q99707) -0.018, MTHFD2 (UniProt P13995) -0.042, MRPS31 (UniProt Q92665) -0.02, MTFR2 (UniProt Q6P444) -0.051, MRPL40 (UniProt Q9NQ50) -0.013, MRPL54 (UniProt Q6P161) -0.064, MRPL44 (UniProt Q9H9J2) -0.03, MT-ATP6 (UniProt P00846) -0.053, MT-CO1 (UniProt P00395) 0.08, MRPL58 (UniProt Q14197) -0.063, MTA2 (UniProt O94776) 0, MTCH1 (UniProt Q9NZJ7) -0.021, MTX1 (UniProt Q13505) -0.014
